Measurements reported in article PMC5395742.
Results are given in words; binding and its absence hold for the method and conditions named. In cells and extracts the contact can be indirect. Some entries that bind do so weakly or less than the wild type.

Amino acid sequences for entries named in this document (tags omitted).
UniProt Q13619: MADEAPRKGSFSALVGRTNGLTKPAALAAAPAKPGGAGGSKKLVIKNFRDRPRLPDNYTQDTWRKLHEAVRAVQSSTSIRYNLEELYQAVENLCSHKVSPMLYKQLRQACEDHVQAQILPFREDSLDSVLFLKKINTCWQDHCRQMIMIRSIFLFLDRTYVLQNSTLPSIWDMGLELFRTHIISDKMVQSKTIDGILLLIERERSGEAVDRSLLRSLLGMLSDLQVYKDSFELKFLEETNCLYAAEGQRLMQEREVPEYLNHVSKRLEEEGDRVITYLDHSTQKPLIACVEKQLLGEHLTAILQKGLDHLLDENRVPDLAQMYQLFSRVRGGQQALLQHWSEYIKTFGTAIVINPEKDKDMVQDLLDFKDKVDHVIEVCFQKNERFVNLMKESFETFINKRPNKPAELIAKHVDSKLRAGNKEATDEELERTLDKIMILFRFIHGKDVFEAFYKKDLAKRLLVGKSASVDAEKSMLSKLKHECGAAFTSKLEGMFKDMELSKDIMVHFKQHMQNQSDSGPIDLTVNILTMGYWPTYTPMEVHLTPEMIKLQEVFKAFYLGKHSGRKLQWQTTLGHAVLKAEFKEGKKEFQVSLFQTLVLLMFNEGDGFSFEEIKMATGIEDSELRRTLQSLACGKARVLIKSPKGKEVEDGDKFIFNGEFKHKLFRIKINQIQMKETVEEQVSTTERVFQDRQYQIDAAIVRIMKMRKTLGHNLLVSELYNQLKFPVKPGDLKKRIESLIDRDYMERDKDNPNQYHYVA

Target: T1, LATS1 (human (endogenous in HCC cells)) (UniProt O95835)
T1 sequence: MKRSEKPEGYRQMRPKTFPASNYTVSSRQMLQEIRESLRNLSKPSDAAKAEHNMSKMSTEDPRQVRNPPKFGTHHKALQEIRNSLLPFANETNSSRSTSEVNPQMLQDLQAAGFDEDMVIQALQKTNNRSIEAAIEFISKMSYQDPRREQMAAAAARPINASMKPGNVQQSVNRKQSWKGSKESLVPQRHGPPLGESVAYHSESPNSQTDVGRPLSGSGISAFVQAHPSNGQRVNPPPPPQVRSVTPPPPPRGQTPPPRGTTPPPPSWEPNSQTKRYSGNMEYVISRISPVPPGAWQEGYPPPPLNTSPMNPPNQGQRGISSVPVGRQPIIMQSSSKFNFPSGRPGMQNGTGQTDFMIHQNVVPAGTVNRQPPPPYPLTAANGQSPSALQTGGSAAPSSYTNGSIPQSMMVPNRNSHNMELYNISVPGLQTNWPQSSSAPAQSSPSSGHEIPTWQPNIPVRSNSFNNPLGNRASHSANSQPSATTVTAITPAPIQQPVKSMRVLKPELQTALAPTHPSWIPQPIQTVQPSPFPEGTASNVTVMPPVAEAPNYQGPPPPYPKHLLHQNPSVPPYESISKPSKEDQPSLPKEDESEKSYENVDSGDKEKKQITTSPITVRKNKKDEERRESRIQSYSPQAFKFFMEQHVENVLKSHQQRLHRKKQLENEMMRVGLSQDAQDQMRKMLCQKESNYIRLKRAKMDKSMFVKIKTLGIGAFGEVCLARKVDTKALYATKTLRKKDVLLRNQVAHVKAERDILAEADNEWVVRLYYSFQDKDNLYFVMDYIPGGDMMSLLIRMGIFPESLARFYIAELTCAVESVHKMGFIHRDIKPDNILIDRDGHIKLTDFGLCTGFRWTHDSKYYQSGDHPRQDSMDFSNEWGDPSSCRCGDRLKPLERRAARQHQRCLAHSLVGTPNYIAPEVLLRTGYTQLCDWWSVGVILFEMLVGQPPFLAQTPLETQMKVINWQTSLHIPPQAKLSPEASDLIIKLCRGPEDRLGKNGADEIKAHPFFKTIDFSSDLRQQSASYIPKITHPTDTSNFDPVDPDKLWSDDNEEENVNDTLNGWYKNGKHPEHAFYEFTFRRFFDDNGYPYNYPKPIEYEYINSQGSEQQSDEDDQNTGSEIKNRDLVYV
Test: co-IP; endogenous proteins in HCC cells; lysates immunoprecipitated with anti-LATS1 or anti-CUL4A antibody on protein A/G beads overnight at 4 °C, eluted proteins detected by Western blotting

CUL4A (from UniProt Q13619 1-759)
binding: binds
